Source: PMC5910400
No constants are given. Whether binding was seen depends on the method and setting. Some binding calls cover weakened binding; strength is not graded here. Where a sequence is shown, tags or fusion partners need not be part of it.

T1: P1156 (evasin from Ixodes ricinus), purified, C-terminal StrepII:His tag (Ixodes ricinus) (UniProt V5HBW0)
T1 sequence: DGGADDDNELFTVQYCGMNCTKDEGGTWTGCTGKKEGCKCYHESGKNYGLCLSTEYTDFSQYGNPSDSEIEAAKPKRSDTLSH

T2: P1243 (evasin from Amblyomma americanum), purified, C-terminal StrepII:8xHis tag (Amblyomma americanum)
T2 sequence: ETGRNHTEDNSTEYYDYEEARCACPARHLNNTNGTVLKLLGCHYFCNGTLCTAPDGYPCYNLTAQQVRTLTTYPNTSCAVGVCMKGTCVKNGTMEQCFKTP

B1: XCL1 (ligand, UniProt P47992 22-114)
chain: VGSEVSDKRTCVSLTTQRLPVSRIKTYTITEGSLRAVIFITKRGLKVCADPQATWVRDVVRSMDRKSNTRNNMIQTKPTGTQQSTNTAVTLTG
B2: CXCL13 (ligand, UniProt O43927 23-109)
chain: VLEVYYTSLRCRCVQESSVFIPRRFIDRIQILPRGNGCPRKEIIVWKKNKSIVCVDPQAEWIQRMMEVLRKRSSSTLPVPVFKRKIP
B3: CXCL14 (ligand, UniProt O95715 35-111)
chain: SKCKCSRKGPKIRYSDVKKLEMKPKYPHCEEKMVIITTKSVSRYRGQEHCLHPKLQSTKRFIKWYNAWNEKRRVYEE

Legend:
[1] = biological target: T1, P1156 (evasin from Ixodes ricinus), purified, C-terminal StrepII:His tag (Ixodes ricinus); assay: BLI; cross-binding screen; His-tagged evasin immobilised on Ni-NTA biosensors (OctetRed); 300 nM chemokine; 30 °C; 10 mM Na2HPO4, 1.8 mM KH2PO4, 2.7 mM KCl, 500 mM NaCl, 0.1% BSA, 0.002% TWEEN-20, pH 7.4; single experiment; both purified
[2] = biological target: T2, P1243 (evasin from Amblyomma americanum), purified, C-terminal StrepII:8xHis tag (Amblyomma americanum); assay: as above

| Binder | binding [1] | binding [2] |
| --- | --- | --- |
| B1 | no binding (tested: 300 nM) | binds weakly |
| B2 | no binding (tested: 300 nM) | no binding (tested: 300 nM) |
| B3 | no binding (tested: 300 nM) | – |
